Data on 33 targets can be found in the supplement of paper PMC10849652.

Sequences of proteins named here, by UniProt entry; tags and fusion partners are left off. A change or cut given only in a name is not applied to a line headed by its entry.
UniProt Q15436: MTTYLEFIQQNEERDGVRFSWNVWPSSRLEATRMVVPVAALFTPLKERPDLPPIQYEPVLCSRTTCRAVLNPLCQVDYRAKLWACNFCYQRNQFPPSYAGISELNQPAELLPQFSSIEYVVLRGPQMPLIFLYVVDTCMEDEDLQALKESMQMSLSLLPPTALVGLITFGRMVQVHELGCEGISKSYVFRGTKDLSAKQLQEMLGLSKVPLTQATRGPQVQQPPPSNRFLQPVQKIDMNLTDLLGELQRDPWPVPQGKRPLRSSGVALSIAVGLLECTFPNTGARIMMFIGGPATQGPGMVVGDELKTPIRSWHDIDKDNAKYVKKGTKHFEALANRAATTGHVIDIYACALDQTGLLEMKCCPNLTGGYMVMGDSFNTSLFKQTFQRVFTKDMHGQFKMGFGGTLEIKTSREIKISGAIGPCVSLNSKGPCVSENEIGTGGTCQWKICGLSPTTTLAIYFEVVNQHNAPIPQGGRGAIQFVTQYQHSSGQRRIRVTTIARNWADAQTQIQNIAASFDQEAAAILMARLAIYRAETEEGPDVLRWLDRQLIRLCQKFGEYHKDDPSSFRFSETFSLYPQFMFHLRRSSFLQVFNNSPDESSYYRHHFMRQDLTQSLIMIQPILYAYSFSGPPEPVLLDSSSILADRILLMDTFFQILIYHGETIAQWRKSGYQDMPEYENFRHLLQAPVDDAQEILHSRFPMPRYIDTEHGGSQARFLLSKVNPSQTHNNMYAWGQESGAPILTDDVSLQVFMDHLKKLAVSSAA
UniProt Q9BRK5: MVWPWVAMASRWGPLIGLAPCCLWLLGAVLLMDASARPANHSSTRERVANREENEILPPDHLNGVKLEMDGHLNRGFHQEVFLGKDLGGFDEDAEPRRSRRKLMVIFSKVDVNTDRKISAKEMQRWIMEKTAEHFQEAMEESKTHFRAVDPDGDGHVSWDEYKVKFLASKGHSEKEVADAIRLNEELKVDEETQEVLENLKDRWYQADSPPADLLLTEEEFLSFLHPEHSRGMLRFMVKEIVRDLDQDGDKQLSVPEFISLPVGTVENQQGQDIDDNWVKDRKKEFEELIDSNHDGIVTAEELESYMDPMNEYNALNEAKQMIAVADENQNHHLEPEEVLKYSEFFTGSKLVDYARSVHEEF
UniProt O94855: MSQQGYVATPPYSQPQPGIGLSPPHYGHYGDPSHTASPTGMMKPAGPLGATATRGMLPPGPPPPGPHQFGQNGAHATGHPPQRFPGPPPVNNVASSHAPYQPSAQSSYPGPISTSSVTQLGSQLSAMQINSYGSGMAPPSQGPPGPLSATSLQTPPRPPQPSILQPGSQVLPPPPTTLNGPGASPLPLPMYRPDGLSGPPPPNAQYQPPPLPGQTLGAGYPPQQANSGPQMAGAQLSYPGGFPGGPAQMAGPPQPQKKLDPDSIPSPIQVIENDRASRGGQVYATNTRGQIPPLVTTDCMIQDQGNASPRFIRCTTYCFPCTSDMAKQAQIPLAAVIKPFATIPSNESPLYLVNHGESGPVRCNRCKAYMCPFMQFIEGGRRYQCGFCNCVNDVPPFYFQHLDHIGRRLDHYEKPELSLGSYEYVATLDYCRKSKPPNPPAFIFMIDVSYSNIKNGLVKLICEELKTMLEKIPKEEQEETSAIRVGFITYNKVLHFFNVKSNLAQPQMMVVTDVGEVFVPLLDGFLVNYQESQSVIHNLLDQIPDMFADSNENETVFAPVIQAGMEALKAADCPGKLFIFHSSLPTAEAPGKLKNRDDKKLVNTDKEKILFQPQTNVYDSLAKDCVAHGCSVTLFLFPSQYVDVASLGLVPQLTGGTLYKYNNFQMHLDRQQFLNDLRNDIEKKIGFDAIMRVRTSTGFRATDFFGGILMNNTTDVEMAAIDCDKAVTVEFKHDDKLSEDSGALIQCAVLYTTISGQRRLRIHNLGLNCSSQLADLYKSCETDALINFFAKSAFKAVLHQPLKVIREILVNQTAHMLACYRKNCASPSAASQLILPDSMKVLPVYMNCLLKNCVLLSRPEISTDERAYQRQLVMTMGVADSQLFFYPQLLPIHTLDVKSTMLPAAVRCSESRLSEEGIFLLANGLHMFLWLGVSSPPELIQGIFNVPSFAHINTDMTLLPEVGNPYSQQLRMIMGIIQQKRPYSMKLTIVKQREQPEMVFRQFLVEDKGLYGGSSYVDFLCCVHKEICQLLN
UniProt Q13228: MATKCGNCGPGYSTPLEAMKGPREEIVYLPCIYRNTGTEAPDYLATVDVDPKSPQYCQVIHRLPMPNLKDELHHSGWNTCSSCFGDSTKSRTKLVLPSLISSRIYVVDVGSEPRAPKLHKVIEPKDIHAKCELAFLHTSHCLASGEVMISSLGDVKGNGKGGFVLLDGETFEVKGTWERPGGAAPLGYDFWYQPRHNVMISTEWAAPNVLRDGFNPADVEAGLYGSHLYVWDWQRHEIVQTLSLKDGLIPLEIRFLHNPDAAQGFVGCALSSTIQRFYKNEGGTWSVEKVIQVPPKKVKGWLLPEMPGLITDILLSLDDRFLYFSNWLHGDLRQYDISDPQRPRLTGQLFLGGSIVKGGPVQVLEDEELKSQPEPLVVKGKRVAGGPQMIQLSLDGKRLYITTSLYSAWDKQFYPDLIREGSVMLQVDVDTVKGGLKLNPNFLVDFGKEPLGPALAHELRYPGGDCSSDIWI
UniProt Q86SQ7: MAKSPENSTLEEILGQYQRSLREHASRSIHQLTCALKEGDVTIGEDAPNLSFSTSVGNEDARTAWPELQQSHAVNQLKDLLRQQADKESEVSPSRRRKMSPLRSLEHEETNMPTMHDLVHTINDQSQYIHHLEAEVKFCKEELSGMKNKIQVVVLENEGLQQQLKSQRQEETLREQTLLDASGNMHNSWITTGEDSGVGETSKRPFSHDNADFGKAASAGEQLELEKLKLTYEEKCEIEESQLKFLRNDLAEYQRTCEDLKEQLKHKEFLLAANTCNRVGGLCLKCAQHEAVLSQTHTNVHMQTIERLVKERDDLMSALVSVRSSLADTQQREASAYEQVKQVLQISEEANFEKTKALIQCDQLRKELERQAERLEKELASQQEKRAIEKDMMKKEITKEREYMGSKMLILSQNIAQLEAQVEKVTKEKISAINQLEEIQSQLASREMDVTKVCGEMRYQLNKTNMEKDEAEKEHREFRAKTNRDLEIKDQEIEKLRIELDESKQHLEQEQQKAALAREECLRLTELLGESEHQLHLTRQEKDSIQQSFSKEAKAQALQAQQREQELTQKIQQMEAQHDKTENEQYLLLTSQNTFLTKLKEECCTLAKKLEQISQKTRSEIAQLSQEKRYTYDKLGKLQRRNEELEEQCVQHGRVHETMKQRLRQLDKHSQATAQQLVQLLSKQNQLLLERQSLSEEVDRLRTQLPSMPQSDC
UniProt O60613, whole entry, looked up: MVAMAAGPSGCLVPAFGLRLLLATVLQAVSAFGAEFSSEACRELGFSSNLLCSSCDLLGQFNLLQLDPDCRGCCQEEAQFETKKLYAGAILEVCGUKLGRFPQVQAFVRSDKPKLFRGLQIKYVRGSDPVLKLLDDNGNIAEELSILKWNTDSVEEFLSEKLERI
UniProt Q6UVJ0: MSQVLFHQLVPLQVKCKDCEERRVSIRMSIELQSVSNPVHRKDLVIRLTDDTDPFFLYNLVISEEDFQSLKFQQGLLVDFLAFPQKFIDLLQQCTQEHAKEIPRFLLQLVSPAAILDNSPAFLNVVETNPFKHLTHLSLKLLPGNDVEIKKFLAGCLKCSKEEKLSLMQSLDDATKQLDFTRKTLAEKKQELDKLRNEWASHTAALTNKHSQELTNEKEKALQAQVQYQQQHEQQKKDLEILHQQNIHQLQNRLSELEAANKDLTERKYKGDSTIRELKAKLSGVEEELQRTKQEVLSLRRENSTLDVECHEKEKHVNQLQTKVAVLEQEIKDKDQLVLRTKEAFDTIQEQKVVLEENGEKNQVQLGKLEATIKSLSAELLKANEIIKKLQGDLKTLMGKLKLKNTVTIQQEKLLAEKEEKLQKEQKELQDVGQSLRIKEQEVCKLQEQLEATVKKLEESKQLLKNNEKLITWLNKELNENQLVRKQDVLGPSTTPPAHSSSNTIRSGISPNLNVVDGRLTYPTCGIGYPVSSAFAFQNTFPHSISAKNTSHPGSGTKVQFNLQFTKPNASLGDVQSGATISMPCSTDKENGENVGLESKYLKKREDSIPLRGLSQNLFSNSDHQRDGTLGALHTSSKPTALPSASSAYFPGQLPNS
UniProt Q9NVA2: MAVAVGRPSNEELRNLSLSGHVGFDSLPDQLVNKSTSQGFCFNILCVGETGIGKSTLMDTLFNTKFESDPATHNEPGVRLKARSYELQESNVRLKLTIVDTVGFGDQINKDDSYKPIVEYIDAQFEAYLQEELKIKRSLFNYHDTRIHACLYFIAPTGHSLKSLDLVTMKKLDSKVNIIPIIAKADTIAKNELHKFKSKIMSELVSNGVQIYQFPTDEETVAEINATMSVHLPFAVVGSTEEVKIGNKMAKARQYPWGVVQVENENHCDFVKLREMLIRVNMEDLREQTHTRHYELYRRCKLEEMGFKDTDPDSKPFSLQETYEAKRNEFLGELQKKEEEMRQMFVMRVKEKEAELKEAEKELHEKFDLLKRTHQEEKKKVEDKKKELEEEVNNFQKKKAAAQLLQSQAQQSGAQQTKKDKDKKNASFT
UniProt Q96NL6: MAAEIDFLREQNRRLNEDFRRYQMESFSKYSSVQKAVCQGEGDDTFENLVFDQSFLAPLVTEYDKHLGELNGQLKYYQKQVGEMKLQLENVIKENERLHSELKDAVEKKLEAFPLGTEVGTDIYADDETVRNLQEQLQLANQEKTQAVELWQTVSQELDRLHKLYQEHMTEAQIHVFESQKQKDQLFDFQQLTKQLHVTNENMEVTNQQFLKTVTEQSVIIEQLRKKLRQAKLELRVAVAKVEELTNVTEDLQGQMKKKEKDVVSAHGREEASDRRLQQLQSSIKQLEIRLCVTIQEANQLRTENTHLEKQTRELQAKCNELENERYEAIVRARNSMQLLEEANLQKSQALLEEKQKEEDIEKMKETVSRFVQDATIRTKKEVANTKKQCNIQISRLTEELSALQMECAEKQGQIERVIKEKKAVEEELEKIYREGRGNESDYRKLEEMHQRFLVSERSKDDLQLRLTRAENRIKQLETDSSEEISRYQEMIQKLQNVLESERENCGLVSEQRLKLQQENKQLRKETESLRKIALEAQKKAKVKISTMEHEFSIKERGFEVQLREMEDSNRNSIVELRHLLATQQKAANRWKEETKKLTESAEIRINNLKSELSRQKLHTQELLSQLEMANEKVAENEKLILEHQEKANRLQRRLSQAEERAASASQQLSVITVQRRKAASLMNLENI
UniProt Q8WTV0: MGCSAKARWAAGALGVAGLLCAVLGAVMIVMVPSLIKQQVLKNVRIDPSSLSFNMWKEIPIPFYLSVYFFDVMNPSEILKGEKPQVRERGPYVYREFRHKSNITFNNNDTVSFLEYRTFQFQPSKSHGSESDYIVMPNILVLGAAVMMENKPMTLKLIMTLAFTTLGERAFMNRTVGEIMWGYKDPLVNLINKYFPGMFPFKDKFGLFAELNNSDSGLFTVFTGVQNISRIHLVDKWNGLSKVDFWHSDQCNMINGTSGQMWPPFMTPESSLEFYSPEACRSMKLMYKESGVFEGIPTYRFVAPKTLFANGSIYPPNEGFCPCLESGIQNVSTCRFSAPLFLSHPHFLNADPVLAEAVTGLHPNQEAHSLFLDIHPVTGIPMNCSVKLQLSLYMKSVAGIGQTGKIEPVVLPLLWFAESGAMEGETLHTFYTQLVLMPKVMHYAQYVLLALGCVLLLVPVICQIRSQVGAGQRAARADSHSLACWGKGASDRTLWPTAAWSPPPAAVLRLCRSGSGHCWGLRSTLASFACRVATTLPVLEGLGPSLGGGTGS
UniProt Q9UQR0: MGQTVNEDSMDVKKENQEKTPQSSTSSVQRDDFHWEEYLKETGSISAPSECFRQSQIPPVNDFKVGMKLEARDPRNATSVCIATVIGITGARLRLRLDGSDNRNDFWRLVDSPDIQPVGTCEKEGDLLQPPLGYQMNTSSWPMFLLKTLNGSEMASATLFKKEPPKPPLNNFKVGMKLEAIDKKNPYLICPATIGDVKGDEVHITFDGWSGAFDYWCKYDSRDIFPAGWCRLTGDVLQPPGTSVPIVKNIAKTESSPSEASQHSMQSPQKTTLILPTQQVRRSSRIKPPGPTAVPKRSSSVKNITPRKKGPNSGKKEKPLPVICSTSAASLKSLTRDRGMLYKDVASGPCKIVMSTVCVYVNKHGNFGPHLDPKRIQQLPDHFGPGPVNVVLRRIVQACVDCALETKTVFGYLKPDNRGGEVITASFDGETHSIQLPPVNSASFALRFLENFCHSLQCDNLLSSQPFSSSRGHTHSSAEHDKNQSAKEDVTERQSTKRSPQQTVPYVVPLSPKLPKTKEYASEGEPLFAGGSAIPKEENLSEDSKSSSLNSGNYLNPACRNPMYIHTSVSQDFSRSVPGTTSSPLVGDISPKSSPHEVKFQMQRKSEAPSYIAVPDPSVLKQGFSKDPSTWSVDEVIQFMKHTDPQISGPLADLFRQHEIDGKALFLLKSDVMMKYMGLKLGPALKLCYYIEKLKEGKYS

Some of the results follow.

Compound in this assay: CC1=CC=C(C=C1)SC2=C3C=C(SC3=CN=C2)C(=O)N
Briefly: log2 fold change, soluble protein after heating vs DMSO (PISA); higher = thermal stabilisation; K562 lysate, 10 uM; active = over 0.2 and 3.5 SD of the protein, either way, in both replicates (recomputed). Summed up: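 K562 pellets were dounce-homogenised in PBS pH 7.4 with 1 mM MgCl2, and the crude extract at 1 mg/mL protein was treated with 10 μM compound for 30 min. Aliquots were heated for 3 min across 48°C-58°C, pooled, and brought to 0.5% NP-40 at 4°C; soluble protein was the supernatant after 21,000xg for 90 min. Soluble protein was quantified by TMTpro 16plex LC-MS/MS with channel sums equalised, and reported as log2 fold change in thermal stability against DMSO controls, with values from duplicates.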
For the target SCRIB (UniProt Q14160), the log2 fold change was inactive: -0.024. In the case of SEC23A (UniProt Q15436) it was inactive: -0.01; in that of SEPTIN9 (UniProt Q9UHD8), inactive: -0.008. To SEMA4B (UniProt Q9NPR2) belongs inactive: 0.011; to SDF4 (UniProt Q9BRK5), inactive: -0.076. SELENOS (UniProt Q9BQE4): the log2 fold change was inactive: -0.048.

For the target SCFD1 (UniProt Q8WVM8), the log2 fold change is inactive: -0.001.

For SEC24D isoform 2 (UniProt O94855), the log2 fold change is inactive: 0.023. To SELENBP1 isoform 4 (UniProt Q13228) belongs inactive: -0.01; to SEC61A1 (UniProt P61619), inactive: -0.027; to SEC24C (UniProt P53992), inactive: 0.002.

Consider SAP30BP (UniProt Q9UHR5), for which the log2 fold change is inactive: -0.021. In the case of SCRN3 (UniProt Q0VDG4) it was inactive: -0.003; in that of SDSL (UniProt Q96GA7), inactive: 0.018. Take SEC63 (UniProt Q9UGP8): the log2 fold change was inactive: 0.01. In the case of SARG (UniProt Q9BW04) it was inactive: -0.06; in that of SAAL1 (UniProt Q96ER3), inactive: -0.004; in that of SAR1B (UniProt Q9Y6B6), inactive: 0.077. To SAMSN1 (UniProt Q9NSI8) belongs inactive: -0.001; to SDCCAG8 (UniProt Q86SQ7), inactive: 0.02; to SCYL1 (UniProt Q96KG9), inactive: 0.009. In the case of SDAD1 (UniProt Q9NVU7) it was inactive: 0.009; in that of SEPTIN2 isoform 2 (UniProt Q15019), inactive: -0.001.

Take SCAMP3 isoform 2 (UniProt O14828): the log2 fold change was inactive: -0.107. As to SELENOF (UniProt O60613), the log2 fold change was inactive: -0.009.

As for SASS6 (UniProt Q6UVJ0), the log2 fold change was inactive: -0.021. In the case of SCFD2 (UniProt Q8WU76) it was inactive: 0.006. To SEPTIN11 isoform 2 (UniProt Q9NVA2) belongs inactive: -0.018; to SCLT1 (UniProt Q96NL6), inactive: -0.013. To SCARB1 isoform 2 (UniProt Q8WTV0) belongs inactive: -0.017. In the case of SENP5 (UniProt Q96HI0), the log2 fold change is inactive: -0.07.

For the target SDHB (UniProt P21912), the log2 fold change was inactive: -0.012.

In the case of SCML2 (UniProt Q9UQR0), the log2 fold change is inactive: 0.109.
